Measured values as given in US12195506B2, “Immunotherapy with A*01 restricted peptides and combination of peptides against cancers and related methods” (Immatics Biotechnologies GmbH, priority 2018, dated 2025).
For part of these data: Expression grades refer to the transcript from which the peptide derives; gene names, where given, were looked up from the sequence.

Tests used:
[1] = test system: HLA molecules of primary tumors and normal tissue samples; test: Identification and relative quantitation of HLA ligands by LC-MS (peptide presentation on tumor versus normal tissue); set-up: species or system human; conditions: for Peptide Presentation on cancer entities: cancer entities on which the peptide was found presented (HLA ligands, LC-MS), abbreviations as in title of Table 8; for presentation on various cancer entities: HLA ligands identified by LC-MS on tumor tissue samples
source genes (mRNA) = test: Expression profiling of genes encoding the peptides (RNAseq, tumor versus normal tissues); set-up: species or system human; conditions: for Gene Expression in tumor samples: Highly over-expressed (++): value = tumor type in which the gene is highly over-expressed compared to a panel of normal tissues; for Gene Expression in tumor samples: very highly over-expressed (+++): value = tumor type in which the gene is very highly over-expressed compared to a panel of normal tissues
[2] = source gene of the peptide, value = tumor type in which the gene is over-expressed compared to a panel of normal tissues

Row | Substance | Peptide Presentation on cancer entities [1] | further results
1 | 1: peptide found in TRPM8 (gene looked up) (TLDSTRTLY; listed as Homo sapiens) [compound 1] | PRCA | Gene Expression in tumor samples: Highly over-expressed (++) (source genes (mRNA); source gene of the peptide): GBM; Gene Expression in tumor samples: very highly over-expressed (+++) (source genes (mRNA); source gene of the peptide): PRCA
2 | 3: peptide found in SLC6A3 (gene looked up) (FGTTPAAEYF; listed as Homo sapiens) [compound 3] | OSCAR | Gene Expression in tumor samples: over-expressed (+) (source genes (mRNA); [2]): NSCLCsquam, SCLC; Gene Expression in tumor samples: very highly over-expressed (+++) (source genes (mRNA); source gene of the peptide): RCC
3 | 5: peptide found in SLC6A3 (gene looked up) (FMVIAGMPLFY; listed as Homo sapiens) [compound 5] | NSCLCsquam | Gene Expression in tumor samples: over-expressed (+) (source genes (mRNA); [2]): NSCLCsquam; Gene Expression in tumor samples: very highly over-expressed (+++) (source genes (mRNA); source gene of the peptide): RCC
4 | 9: peptide found in CYP4Z1 (gene looked up) (QLDSTLDSY; listed as Homo sapiens) [compound 9] | BRCA | Gene Expression in tumor samples: very highly over-expressed (+++) (source genes (mRNA); source gene of the peptide): BRCA
5 | 94: peptide found in MMP26 (gene looked up) (KPSAVKDSIY; listed as Homo sapiens) [compound 94] | – | Gene Expression in tumor samples: Highly over-expressed (++) (source genes (mRNA); source gene of the peptide): PRCA, SCLC; Gene Expression in tumor samples: very highly over-expressed (+++) (source genes (mRNA); source gene of the peptide): UEC
6 | 110: peptide found in MMP13 (gene looked up) (IGDKVDAVY; listed as Homo sapiens) [compound 110] | – | Gene Expression in tumor samples: Highly over-expressed (++) (source genes (mRNA); source gene of the peptide): HNSCC, NSCLCsquam, OSCAR; Gene Expression in tumor samples: over-expressed (+) (source genes (mRNA); [2]): NSCLCadeno, UBC
7 | 118: peptide found in LOXL4 (gene looked up) (LTWAHSAKY; listed as Homo sapiens) [compound 118] | – | Gene Expression in tumor samples: Highly over-expressed (++) (source genes (mRNA); source gene of the peptide): MEL; Gene Expression in tumor samples: over-expressed (+) (source genes (mRNA); [2]): CCC
8 | 133: peptide found in LOXL4 (gene looked up) (ITDVGPGNY; listed as Homo sapiens) [compound 133] | – | Gene Expression in tumor samples: Highly over-expressed (++) (source genes (mRNA); source gene of the peptide): MEL
9 | 152: peptide found in LOXL4 (gene looked up) (YLEDRPLSQ; listed as Homo sapiens) [compound 152] | – | Gene Expression in tumor samples: Highly over-expressed (++) (source genes (mRNA); source gene of the peptide): MEL
10 | 153: peptide found in LOXL4 (gene looked up) (HSIEVFTHY; listed as Homo sapiens) [compound 153] | – | Gene Expression in tumor samples: Highly over-expressed (++) (source genes (mRNA); source gene of the peptide): MEL
11 | 154: peptide found in LOXL4 (gene looked up) (SIEVFTHY; listed as Homo sapiens) [compound 154] | – | Gene Expression in tumor samples: Highly over-expressed (++) (source genes (mRNA); source gene of the peptide): MEL
12 | 193: peptide found in SLC5A4 (gene looked up) (SQNGQLIHY; listed as Homo sapiens) [compound 193] | – | Gene Expression in tumor samples: Highly over-expressed (++) (source genes (mRNA); source gene of the peptide): MEL
13 | 227: peptide found in PDE10A (gene looked up) (ESAPKEVSRY; listed as Homo sapiens) [compound 227] | – | Gene Expression in tumor samples: over-expressed (+) (source genes (mRNA); [2]): RCC, UBC
14 | 231: peptide found in CXCR3 (gene looked up) (LLPLLVMAY; listed as Homo sapiens) [compound 231] | – | Gene Expression in tumor samples: over-expressed (+) (source genes (mRNA); [2]): CLL
15 | 236: peptide found in IGF2BP1 (gene looked up) (VLDSLLAQY; listed as Homo sapiens) [compound 236] | – | Gene Expression in tumor samples: over-expressed (+) (source genes (mRNA); [2]): GBC, HCC, HNSCC, NSCLCsquam, SCLC
16 | 264: peptide found in CYP2W1 (gene looked up) (YRDPVFVSL; listed as Homo sapiens) [compound 264] | – | Gene Expression in tumor samples: over-expressed (+) (source genes (mRNA); [2]): CRC
17 | 354: peptide found in HPGDS (gene looked up) (EIIRYIFAY; listed as Homo sapiens) [compound 354] | – | Gene Expression in tumor samples: over-expressed (+) (source genes (mRNA); tumor types in which the source gene is over-expressed (+) compared to a panel of normal tissues): AML
18 | 365 (FVDTKVPEH; listed as Homo sapiens) [compound 365] | HCC, NHL, NSCLCsquam | –
19 | 366 (ITVDVRDEF; listed as Homo sapiens) [compound 366] | GBM | –
20 | 367 (LTDTGYLQLY; listed as Homo sapiens) [compound 367] | GBM, HNSCC, OC, OSCAR, UBC | –
21 | 369 (AVMEAAFVY; listed as Homo sapiens) [compound 369] | BRCA | –
22 | 370 (RLSTIRHLY; listed as Homo sapiens) [compound 370] | HNSCC, MEL | –

Row | Substance | Peptide Presentation on cancer entities [1] | further results
23 | 371 (WSDSTSQTIY; listed as Homo sapiens) [compound 371] | OSCAR | –
24 | 372 (SRSDFEWVY; listed as Homo sapiens) [compound 372] | BRCA, OSCAR | –
25 | 373 (FHADSDDESF; listed as Homo sapiens) [compound 373] | NHL | –
26 | 375 (ASSLDSLHY; listed as Homo sapiens) [compound 375] | BRCA | –
27 | 376 (EDDEDEDLY; listed as Homo sapiens) [compound 376] | NSCLCsquam | –
28 | 378 (TAKAPSTEY; listed as Homo sapiens) [compound 378] | GBC, NSCLCadeno, NSCLCother, NSCLCsquam | –
29 | 379 (SLIIDDTEY; listed as Homo sapiens) [compound 379] | GBC, NSCLCsquam | –
30 | 380 (VACGNNPVY; listed as Homo sapiens) [compound 380] | NSCLCadeno | –
31 | 382 (YEPATMEQY; listed as Homo sapiens) [compound 382] | NSCLCsquam | –
32 | 383 (PPDHAVGRTKY; listed as Homo sapiens) [compound 383] | UBC | –
33 | 384 (RFRSITQSYY; listed as Homo sapiens) [compound 384] | CLL | –
34 | 385 (SANALILTY; listed as Homo sapiens) [compound 385] | BRCA, MEL | –
35 | 388 (YTAHVGYSMY; listed as Homo sapiens) [compound 388] | NSCLCadeno | –
36 | 390 (FSEPFHLIVSY; listed as Homo sapiens) [compound 390] | CLL, MEL | –
37 | 392 (TQHFVQENY; listed as Homo sapiens) [compound 392] | MEL | –
38 | 393 (QVWGGQPVY; listed as Homo sapiens) [compound 393] | MEL | –
39 | 394 (QVPLDCVLY; listed as Homo sapiens) [compound 394] | HNSCC, OSCAR | –
40 | 395 (ILKGGSGTY; listed as Homo sapiens) [compound 395] | MEL | –
41 | 396 (LPDPNVQKY; listed as Homo sapiens) [compound 396] | MEL | –
42 | 397 (NSAINPLIY; listed as Homo sapiens) [compound 397] | NSCLCadeno, RCC, UEC | –
43 | LSSAVNPIIY (listed as Homo sapiens) [SEQ ID No. 21] | – | presentation on various cancer entities [1]: breast cancer and prostate cancer
44 | WSDGVPLLY (listed as Homo sapiens) [SEQ ID No. 47] | – | presentation on various cancer entities [1]: melanoma, non-small cell lung cancer, and ovarian cancer
